From paper PMC7809202, “Identification of fidelity-governing factors in human recombinases DMC1 and RAD51 from cryo-EM structures” (Nature Communications, 2021)
Residue numbers refer to the chain shown, from its start. For at least one entry, the source does not settle the construct or the ends of the probe. At least one verdict was read from the data and is not stated in words by the source. For some of these results: Tags and fusion partners may be left off the protein sequences shown.

Protein sequences, listed by entry. Tags and fused reporters are not part of them.
UniProt Q06609, whole entry: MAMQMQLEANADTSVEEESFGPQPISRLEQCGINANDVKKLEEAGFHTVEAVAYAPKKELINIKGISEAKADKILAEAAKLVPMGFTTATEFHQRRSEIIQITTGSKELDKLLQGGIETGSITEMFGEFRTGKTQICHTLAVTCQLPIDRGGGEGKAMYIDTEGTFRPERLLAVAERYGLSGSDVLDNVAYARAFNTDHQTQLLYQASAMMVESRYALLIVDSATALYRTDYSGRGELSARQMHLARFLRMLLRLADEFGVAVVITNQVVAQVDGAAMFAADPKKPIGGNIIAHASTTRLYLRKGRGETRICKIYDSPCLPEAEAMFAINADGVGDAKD
UniProt Q06609, whole entry M243Q: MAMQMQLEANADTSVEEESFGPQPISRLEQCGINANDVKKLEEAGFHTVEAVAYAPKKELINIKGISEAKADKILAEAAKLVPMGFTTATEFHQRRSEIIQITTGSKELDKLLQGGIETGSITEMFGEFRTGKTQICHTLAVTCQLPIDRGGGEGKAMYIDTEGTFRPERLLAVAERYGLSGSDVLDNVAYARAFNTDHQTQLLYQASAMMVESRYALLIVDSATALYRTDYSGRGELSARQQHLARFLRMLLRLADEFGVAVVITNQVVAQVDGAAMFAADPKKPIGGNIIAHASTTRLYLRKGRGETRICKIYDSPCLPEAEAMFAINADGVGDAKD
UniProt Q06609, whole entry M243Q/V273P/D274G: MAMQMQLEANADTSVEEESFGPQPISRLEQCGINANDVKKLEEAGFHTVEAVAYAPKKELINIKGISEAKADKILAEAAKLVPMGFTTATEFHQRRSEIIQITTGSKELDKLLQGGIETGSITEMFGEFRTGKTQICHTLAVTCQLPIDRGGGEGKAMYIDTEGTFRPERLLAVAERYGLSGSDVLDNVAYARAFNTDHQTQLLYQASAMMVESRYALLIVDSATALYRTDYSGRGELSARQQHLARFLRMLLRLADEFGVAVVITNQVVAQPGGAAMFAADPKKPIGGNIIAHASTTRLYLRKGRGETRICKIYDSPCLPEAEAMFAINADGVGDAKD
UniProt Q06609, whole entry V273P/D274G: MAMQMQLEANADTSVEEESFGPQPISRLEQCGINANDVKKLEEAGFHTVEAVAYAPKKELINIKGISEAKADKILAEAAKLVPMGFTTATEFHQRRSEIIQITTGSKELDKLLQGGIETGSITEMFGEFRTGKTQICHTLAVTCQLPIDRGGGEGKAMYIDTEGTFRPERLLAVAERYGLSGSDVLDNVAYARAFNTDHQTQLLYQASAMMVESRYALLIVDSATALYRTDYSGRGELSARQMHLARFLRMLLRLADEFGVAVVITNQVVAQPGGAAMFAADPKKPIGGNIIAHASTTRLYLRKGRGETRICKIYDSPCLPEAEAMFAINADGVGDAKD

Tests used:
[1] = target: RAD51 WT (Homo sapiens) (UniProt Q06609); experiment: EMSA; conditions: 2 mM ATP, 10 mM Mg2+, EMSA: 35 mM Tris-HCl pH 7.5, 1 mM DTT, 10 mM MgCl2, 100 ng/ul BSA, 50 mM KCl, 37 °C 10 min, DNA 3 uM nucleotides or base pairs, recombinant protein
[2] = target: RAD51-M243Q (Mq) (Homo sapiens) (UniProt Q06609); experiment: EMSA; conditions: 2 mM ATP, 10 mM Mg2+, comparable to WT, EMSA: 35 mM Tris-HCl pH 7.5, 1 mM DTT, 10 mM MgCl2, 100 ng/ul BSA, 50 mM KCl, 37 °C 10 min, DNA 3 uM nucleotides or base pairs, recombinant protein
[3] = target: RAD51-MqVpDg M243Q,V273P,D274G (Homo sapiens) (UniProt Q06609); experiment: EMSA; conditions: 2 mM ATP, 10 mM Mg2+, comparable to WT, EMSA: 35 mM Tris-HCl pH 7.5, 1 mM DTT, 10 mM MgCl2, 100 ng/ul BSA, 50 mM KCl, 37 °C 10 min, DNA 3 uM nucleotides or base pairs, recombinant protein
[4] = target: T1, DMC1-Q244M (Qm) (Homo sapiens) (UniProt Q14565); experiment: EMSA; conditions: 2 mM ATP, 10 mM Mg2+, comparable to WT, EMSA: 35 mM Tris-HCl pH 7.5, 1 mM DTT, 10 mM MgCl2, 100 ng/ul BSA, 50 mM KCl, 37 °C 10 min, DNA 3 uM nucleotides or base pairs, recombinant protein
T1 sequence (looked up, limits assumed): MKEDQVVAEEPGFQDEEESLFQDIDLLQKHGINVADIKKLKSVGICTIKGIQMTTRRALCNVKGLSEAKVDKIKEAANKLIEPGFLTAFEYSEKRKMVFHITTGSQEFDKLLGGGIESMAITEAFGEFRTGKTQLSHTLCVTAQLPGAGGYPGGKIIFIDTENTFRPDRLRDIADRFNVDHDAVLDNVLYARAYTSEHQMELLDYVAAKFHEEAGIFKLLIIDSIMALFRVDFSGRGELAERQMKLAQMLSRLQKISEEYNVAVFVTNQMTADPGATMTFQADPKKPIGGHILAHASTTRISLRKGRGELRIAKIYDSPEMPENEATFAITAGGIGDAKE

[5] = target: RAD51-VpDg V273P,D274G (Homo sapiens) (UniProt Q06609); experiment: EMSA; conditions: 2 mM ATP, 10 mM Mg2+, comparable to WT, EMSA: 35 mM Tris-HCl pH 7.5, 1 mM DTT, 10 mM MgCl2, 100 ng/ul BSA, 50 mM KCl, 37 °C 10 min, DNA 3 uM nucleotides or base pairs, recombinant protein
[6] = target: T2, DMC1 WT (Homo sapiens) (UniProt Q14565); experiment: EMSA; conditions: 2 mM ATP, 10 mM Mg2+, EMSA: 35 mM Tris-HCl pH 7.5, 1 mM DTT, 10 mM MgCl2, 100 ng/ul BSA, 50 mM KCl, 37 °C 10 min, DNA 3 uM nucleotides or base pairs, recombinant protein
T2 sequence (looked up, limits assumed): T1 sequence (looked up, limits assumed) with M244Q

[7] = target: RAD51-VpDg V273P,D274G (Homo sapiens) (UniProt Q06609); experiment: cryo-EM structure; conditions: recombinant protein
[8] = label: 5'-32P (EMSA), single-stranded DNA
[9] = protein details: His6, label: 5'-32P (EMSA), single-stranded DNA
[10] = protein details: His6, label: 5'-32P on Oligo 1

Measured: binding result

TTATGTTCATTTTTTATATCCTTTACTTTATTTTCTCTGTTTATTCATTTACTTATTTTGTATTATCCTTATCTTATTTA [Oligo 1 80-mer ssDNA]
binds: [1]; [8] | [2]; [8] | [3]; [8] | [4]; [9] | [5]; [8] | [6]; [9]

TTATGTTCATTTTTTATATCCTTTACTTTATTTTCTCTGTTTATTCATTTACTTATTTTGTATTATCCTTATCTTATTTA (double strand) [Oligo 1/Oligo 2 80 bp dsDNA]
binds: [1]; label: 5'-32P on Oligo 1 | [2]; label: 5'-32P on Oligo 1 | [3]; label: 5'-32P on Oligo 1 | [4]; [10] | [5]; label: 5'-32P on Oligo 1 | [6]; [10]

ACGGGCAACAGCTGA (double strand) [Oligo 3/Oligo 4 15 bp homologous dsDNA]
binds: [7]
